Assay results reported in patent US20250154202A1 (BIONTECH SE, priority 2022, published 2025).

Tests used:
anti-ALFA VHH = assay: binding affinity to the anti-ALFA VHH (log(agonist) vs. response, variable slope); details: best-fit values
[1] = general procedure: Fmoc solid-phase peptide synthesis; Sieber Amide resin, 100-200 mesh; DIC/Oxyma + DIEA; details: whole synthesis, UV214, scale of the general procedure 0.1 mmol

CC(=O)N[C@@H](CO)C(=O)N[C@@H](CCCNC(=N)N)C(=O)N[C@@H](CC(C)C)C(=O)N[C@@H](CCC(=O)O)C(=O)N[C@H]1CCC(=O)NCCCC[C@@H](C(=O)N[C@@H](CCCNC(=N)N)C(=O)N[C@@H](CCCNC(=N)N)C(=O)N[C@@H](CC(C)C)C(=O)N[C@H](C(=O)N[C@@H](CCC(=O)O)C(N)=O)[C@@H](C)O)NC(=O)[C@H](CC(C)C)NC(=O)[C@H](CCC(=O)O)NC1=O [SD15192, Ac-Ser-Arg-Leu-Glu-(cyclo5)Glu-Glu-Leu-(cyclo8)Lys-Arg-Arg-Leu-Thr-Glu-NH2] (Ac-SRLEEELKRRLTE-NH2; lactam 5-8)
HillSlope (anti-ALFA VHH): −0.9841

CC(=O)N[C@@H](CO)C(=O)N[C@@H](CCCNC(=N)N)C(=O)N[C@@H](CC(C)C)C(=O)N[C@@H](CCC(=O)O)C(=O)N[C@@H](CCC(=O)O)C(=O)N[C@@H](CCC(=O)O)C(=O)N[C@@H](CC(C)C)C(=O)N[C@@H](CCCNC(=N)N)C(=O)N[C@H]1CCCCNC(=O)CC[C@@H](C(N)=O)NC(=O)[C@H]([C@@H](C)O)NC(=O)[C@H](CC(C)C)NC(=O)[C@H](CCCNC(=N)N)NC1=O [SD15193, Ac-Ser-Arg-Leu-Glu-Glu-Glu-Leu-Arg-(cyclo9)Lys-Arg-Leu-Thr-(cyclo13)Glu-NH2] (Ac-SRLEEELRKRLTE-NH2; lactam 9-13)
HillSlope (anti-ALFA VHH): −0.8859

CC(=O)N[C@@H](CO)C(=O)N[C@@H](CCCNC(=N)N)C(=O)N[C@@H](CC(C)C)C(=O)N[C@@H](CCC(=O)O)C(=O)N[C@H]1CCC(=O)NCCCC[C@@H](C(=O)N[C@@H](CCCNC(=N)N)C(=O)N[C@@H](CC(C)C)C(=O)N[C@H](C(=O)N[C@@H](CCC(=O)O)C(N)=O)[C@@H](C)O)NC(=O)[C@H](CCCNC(=N)N)NC(=O)[C@H](CC(C)C)NC(=O)[C@H](CCC(=O)O)NC1=O [SD15194, Ac-Ser-Arg-Leu-Glu-(cyclo5)Glu-Glu-Leu-Arg-(cyclo9)Lys-Arg-Leu-Thr-Glu-NH2] (Ac-SRLEEELRKRLTE-NH2; lactam 5-9)
HillSlope (anti-ALFA VHH): −0.9926

CC(=O)N[C@@H](CO)C(=O)N[C@@H](CCCNC(=N)N)C(=O)N[C@@H](CC(C)C)C(=O)N[C@@H](CCC(=O)O)C(=O)N[C@H]1CC(=O)NCCCC[C@@H](C(=O)N[C@@H](CCCNC(=N)N)C(=O)N[C@@H](CC(C)C)C(=O)N[C@H](C(=O)N[C@@H](CCC(=O)O)C(N)=O)[C@@H](C)O)NC(=O)[C@H](CCCNC(=N)N)NC(=O)[C@H](CC(C)C)NC(=O)[C@H](CCC(=O)O)NC1=O [SD15196, Ac-Ser-Arg-Leu-Glu-(cyclo5)Asp-Glu-Leu-Arg-(cyclo9)Lys-Arg-Leu-Thr-Glu-NH2] (Ac-SRLEDELRKRLTE-NH2; lactam 5-9)
HillSlope (anti-ALFA VHH): −0.7157

Ac-PSRLECEL[dC]RRLTE-NH2 (disulfide 6-9; SMILES CC(=O)N1CCC[C@H]1C(=O)N[C@@H](CO)C(=O)N[C@@H](CCCNC(=N)N)C(=O)N[C@@H](CC(C)C)C(=O)N[C@@H](CCC(=O)O)C(=O)N[C@H]1CSSC[C@H](C(=O)N[C@@H](CCCNC(=N)N)C(=O)N[C@@H](CCCNC(=N)N)C(=O)N[C@@H](CC(C)C)C(=O)N[C@H](C(=O)N[C@@H](CCC(=O)O)C(N)=O)[C@@H](C)O)NC(=O)[C@H](CC(C)C)NC(=O)[C@H](CCC(=O)O)NC1=O)
final HPLC purity ([1]; TFA): 100%

Ac-PSRLEEELKRRLTE-NH2 (lactam 5-9; SMILES CC(=O)N1CCC[C@H]1C(=O)N[C@@H](CO)C(=O)N[C@@H](CCCNC(=N)N)C(=O)N[C@@H](CC(C)C)C(=O)N[C@H]1CCC(=O)NCCCC[C@@H](C(=O)N[C@@H](CCCNC(=N)N)C(=O)N[C@@H](CCCNC(=N)N)C(=O)N[C@@H](CC(C)C)C(=O)N[C@H](C(=O)N[C@@H](CCC(=O)O)C(N)=O)[C@@H](C)O)NC(=O)[C@H](CC(C)C)NC(=O)[C@H](CCC(=O)O)NC(=O)[C@H](CCC(=O)O)NC1=O)
final HPLC purity ([1]; TFA): 99%

Ac-PSRLEEELRKRLTE-NH2 (lactam 6-10; SMILES CC(=O)N1CCC[C@H]1C(=O)N[C@@H](CO)C(=O)N[C@@H](CCCNC(=N)N)C(=O)N[C@@H](CC(C)C)C(=O)N[C@@H](CCC(=O)O)C(=O)N[C@H]1CCC(=O)NCCCC[C@@H](C(=O)N[C@@H](CCCNC(=N)N)C(=O)N[C@@H](CC(C)C)C(=O)N[C@H](C(=O)N[C@@H](CCC(=O)O)C(N)=O)[C@@H](C)O)NC(=O)[C@H](CCCNC(=N)N)NC(=O)[C@H](CC(C)C)NC(=O)[C@H](CCC(=O)O)NC1=O)
final HPLC purity ([1]; Acetate): 100%

Ac-PSRLEEELR[dK]RLTE-NH2 (lactam 6-10; SMILES CC(=O)N1CCC[C@H]1C(=O)N[C@@H](CO)C(=O)N[C@@H](CCCNC(=N)N)C(=O)N[C@@H](CC(C)C)C(=O)N[C@@H](CCC(=O)O)C(=O)N[C@H]1CCC(=O)NCCCC[C@H](C(=O)N[C@@H](CCCNC(=N)N)C(=O)N[C@@H](CC(C)C)C(=O)N[C@H](C(=O)N[C@@H](CCC(=O)O)C(N)=O)[C@@H](C)O)NC(=O)[C@H](CCCNC(=N)N)NC(=O)[C@H](CC(C)C)NC(=O)[C@H](CCC(=O)O)NC1=O)
final HPLC purity ([1]; TFA): 100%

Ac-PSRLEKELRERLTE-NH2 (lactam 6-10; SMILES CC(=O)N1CCC[C@H]1C(=O)N[C@@H](CO)C(=O)N[C@@H](CCCNC(=N)N)C(=O)N[C@@H](CC(C)C)C(=O)N[C@@H](CCC(=O)O)C(=O)N[C@H]1CCCCNC(=O)CC[C@@H](C(=O)N[C@@H](CCCNC(=N)N)C(=O)N[C@@H](CC(C)C)C(=O)N[C@H](C(=O)N[C@@H](CCC(=O)O)C(N)=O)[C@@H](C)O)NC(=O)[C@H](CCCNC(=N)N)NC(=O)[C@H](CC(C)C)NC(=O)[C@H](CCC(=O)O)NC1=O)
final HPLC purity ([1]; TFA): 94%

Ac-SRLEDELRKRLTE-NH2 (lactam 5-9; SMILES CC(=O)N[C@@H](CO)C(=O)N[C@@H](CCCNC(=N)N)C(=O)N[C@@H](CC(C)C)C(=O)N[C@@H](CCC(=O)O)C(=O)N[C@H]1CC(=O)NCCCC[C@@H](C(=O)N[C@@H](CCCNC(=N)N)C(=O)N[C@@H](CC(C)C)C(=O)N[C@H](C(=O)N[C@@H](CCC(=O)O)C(N)=O)[C@@H](C)O)NC(=O)[C@H](CCCNC(=N)N)NC(=O)[C@H](CC(C)C)NC(=O)[C@H](CCC(=O)O)NC1=O)
final HPLC purity ([1]; TFA): 95%

Ac-SRLEEELKRRLTE-NH2 (lactam 5-8; SMILES CC(=O)N[C@@H](CO)C(=O)N[C@@H](CCCNC(=N)N)C(=O)N[C@@H](CC(C)C)C(=O)N[C@@H](CCC(=O)O)C(=O)N[C@H]1CCC(=O)NCCCC[C@@H](C(=O)N[C@@H](CCCNC(=N)N)C(=O)N[C@@H](CCCNC(=N)N)C(=O)N[C@@H](CC(C)C)C(=O)N[C@H](C(=O)N[C@@H](CCC(=O)O)C(N)=O)[C@@H](C)O)NC(=O)[C@H](CC(C)C)NC(=O)[C@H](CCC(=O)O)NC1=O)
final HPLC purity ([1]; TFA): 99%

Ac-SRLEEELRKRLTE-NH2 (lactam 5-9; SMILES CC(=O)N[C@@H](CO)C(=O)N[C@@H](CCCNC(=N)N)C(=O)N[C@@H](CC(C)C)C(=O)N[C@@H](CCC(=O)O)C(=O)N[C@H]1CCC(=O)NCCCC[C@@H](C(=O)N[C@@H](CCCNC(=N)N)C(=O)N[C@@H](CC(C)C)C(=O)N[C@H](C(=O)N[C@@H](CCC(=O)O)C(N)=O)[C@@H](C)O)NC(=O)[C@H](CCCNC(=N)N)NC(=O)[C@H](CC(C)C)NC(=O)[C@H](CCC(=O)O)NC1=O)
final HPLC purity ([1]; TFA): 97%

Ac-SRLEEELRKRLTE-NH2 (lactam 9-13; SMILES CC(=O)N[C@@H](CO)C(=O)N[C@@H](CCCNC(=N)N)C(=O)N[C@@H](CC(C)C)C(=O)N[C@@H](CCC(=O)O)C(=O)N[C@@H](CCC(=O)O)C(=O)N[C@@H](CCC(=O)O)C(=O)N[C@@H](CC(C)C)C(=O)N[C@@H](CCCNC(=N)N)C(=O)N[C@H]1CCCCNC(=O)CC[C@@H](C(N)=O)NC(=O)[C@H]([C@@H](C)O)NC(=O)[C@H](CC(C)C)NC(=O)[C@H](CCCNC(=N)N)NC1=O)
final HPLC purity ([1]; TFA): 98%

Ac-SRLEEELRRRLTE-NH2 [SD15197, Ac-Ser-Arg-Leu-Glu-Glu-Glu-Leu-Arg-Arg-Arg-Leu-Thr-Glu-NH2, reference compound]
HillSlope (anti-ALFA VHH): −1.670

Bridge positions count the residues as written; N and C are the ends. Square brackets hold non-standard residues; d marks the D form. Peptide text beside a SMILES is read from it.
